Source: PubChem BioAssay AID1259405 (NCATS, 2018)

Test: 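Silenced genes that increase secreted GFP made by CHO cells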 (primary screen)
Cell system: Chinese hamster CHO-K1 ovary cells with stable secreted eGFP expression
Reagents: single siRNA against mouse genes, 0.8 pmol siRNA per well (2 µl of 400 nM stock)
Timing: 3 days
Read-out: 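Percent of the per-plate non-targeting control median for intracellular GFP per well by laser scanning cytometry and for cell viability by ATP luminescence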
Scale: GFP, % of control: higher = more GFP per well, higher productivity; viability (ATP), % of control: higher = more viable cells (more ATP)
Active means: 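a knock-down is called active if GFP reaches 120% or more of non-targeting control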
In all, the deposit lists about 50,000 reagents; shown is a random part of them. About 4,000 of all reagents (8%) count as active. 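Mouse siRNA library applied to hamster cells; one well for each siRNA.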 The numbers tell different reagents against one gene apart. Reagent sequences are not shown.

Knock-down of Fbxo25 #1 gave: GFP, % of control 60.2; viability (ATP), % of control 59.6; inactive. Fbxo25 #2 gave GFP, % of control 115; viability (ATP), % of control 79.9; inactive. Fbxo25 #3 scored GFP, % of control 135; viability (ATP), % of control 82.8; active. Silencing of Stat3 #1 gave: GFP, % of control 63.6; viability (ATP), % of control 75.8; inactive. Against Stat3 #2 the deposit lists GFP, % of control 75.9; viability (ATP), % of control 82.4; inactive. Knock-down of Stat3 #3 gave: GFP, % of control 47.5; viability (ATP), % of control 77.6; inactive.

With knock-down of Zfp33b #1 the results were GFP, % of control 56; viability (ATP), % of control 72.6; inactive. For Zfp33b #2, the entry reads GFP, % of control 75.9; viability (ATP), % of control 77.8; inactive. Zfp33b #3 showed GFP, % of control 84.4; viability (ATP), % of control 66.4; inactive. 1700018B24Rik #1 scored GFP, % of control 81.4; viability (ATP), % of control 93; inactive. With knock-down of 1700018B24Rik #2 the results were GFP, % of control 73.2; viability (ATP), % of control 72.1; inactive. Knock-down of 1700018B24Rik #3 resulted in: GFP, % of control 94.2; viability (ATP), % of control 96.6; inactive.

Against Rbm25 #1, the values are GFP, % of control 43.6; viability (ATP), % of control 56.7; inactive. Rbm25 #2 showed GFP, % of control 63.8; viability (ATP), % of control 66.3; inactive. Rbm25 #3 showed GFP, % of control 39.9; viability (ATP), % of control 49.2; inactive. Depletion of Lrrc45 #1 resulted in: GFP, % of control 70.6; viability (ATP), % of control 78.2; inactive. Lrrc45 #2 scored GFP, % of control 84.2; viability (ATP), % of control 76.2; inactive. Lrrc45 #3 showed GFP, % of control 110; viability (ATP), % of control 143; inactive.

Osgin1 #1 showed GFP, % of control 93.9; viability (ATP), % of control 78.6; inactive. Knock-down of Osgin1 #2 came out at: GFP, % of control 109; viability (ATP), % of control 62.9; inactive. Knock-down of Osgin1 #3 came out at: GFP, % of control 65.5; viability (ATP), % of control 90.5; inactive. For Itgax #1, the entry reads GFP, % of control 63.5; viability (ATP), % of control 72.9; inactive. Depletion of Itgax #2 gave: GFP, % of control 107; viability (ATP), % of control 94.6; inactive. With knock-down of Txndc2 #1, the screen gave GFP, % of control 66.1; viability (ATP), % of control 70.6; inactive.

Knock-down of Txndc2 #2 gave: GFP, % of control 54.8; viability (ATP), % of control 61.8; inactive. Txndc2 #3 gave GFP, % of control 67.7; viability (ATP), % of control 61.2; inactive. Against Or52n2b #1, the values are GFP, % of control 97.6; viability (ATP), % of control 79.1; inactive. For Or52n2b #2 the deposit lists GFP, % of control 95; viability (ATP), % of control 58.6; inactive. Silencing of Or52n2b #3 came out at: GFP, % of control 66.7; viability (ATP), % of control 93; inactive.

Hits (from the list above):
Fbxo25 #3 — GFP, % of control = 135; viability (ATP), % of control = 82.8; activity call = active
